The assay is described as follows: qHTS Assay for Lipid Storage Modulators in Drosophila S3 Cells.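 On cell number change: cells counted by Cell Tracker Red CMTPX staining in the red channel.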 Particulars: BODIPY lipid droplet fluorescence, 18-24 h; for cell number change: measured here: cell count max response, cells fed with added oleic acid. A digest of the protocol: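 Laser-scanning cytometry quantifies lipid droplet accumulation (500–530 nm total intensity; droplet/cell object ratio) in oleic acid-fed (400 uM added) Drosophila S3 cells treated with a concentration series. 20 uM Triacsin C defined 100% inhibition.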
A general note: qHTS replaces the single test concentration by a dilution series.

The mark [1] stands for this setting: measured here: cell number channel AC50, cells fed with added oleic acid.
Where [2] appears, read: measured here: lipid fluorescence (Fed channel) AC50, cells fed with added oleic acid.

Each structure is given as a SMILES string. The list shows a part of the results. These are further read-outs of the screen, such as a control signal, another cell line or another target. No call is given for them. Most of these compounds were active or inconclusive in the main read-out, so they are no random draw. Potencies come from curve fits of mixed quality, noted in brackets.

As usually defined, the AC50 is the concentration at which the activity in the assay is half-maximal. Higher therefore signals activity only at high concentration. As for `CCOC(=O)c1nn(-c2ccccc2)c(=O)cc1OCC(=O)Nc1cc(C)ccc1OC`, the AC50 by setting is: under setting [1], 116 nM [falling, full curve, poor fit]; under setting [2], 20600 nM [falling, single point].
For `O=C(CN(C(=O)CCC(=O)Nc1ccccn1)c1ccc(F)cc1)NCc1ccco1`, the cell number change was -8.57%. Also, the AC50 under setting [2] is 6510 nM [rising, partial curve].
Take `CCC1S/C(=N/N=C/c2ccco2)N(c2ccc(F)cc2)C1=O` (configuration not stated): the cell number change was -44.8%. Besides, the AC50 under setting [1] is 25900 nM [falling, single point]. For the same compound, the AC50 under setting [2] was 14600 nM [falling, single point].
Take `O=C1NC(c2ccc(Br)cc2)Oc2ccccc21` (configuration not stated): the cell number change is -8.29%. Besides, under setting [2], the AC50 is 13 nM [rising, full curve, poor fit].
Regarding `CCOC(=O)C1CCCN(C(=O)c2cn(CC)c3ccc(S(=O)(=O)N(C)C)cc3c2=O)C1` (configuration not stated), the cell number change was -48.8%. Besides, the AC50 under setting [1] is 1840 nM [falling, partial curve].
Turning to `Cc1ccc(NC(=O)c2ccc(Cn3cc(Cl)cn3)o2)c(C)c1`, under setting [2], the AC50 was 29100 nM [falling, single point].
With `O=C(COC(=O)CNC(=O)c1ccccc1F)NCC(F)(F)F`, the cell number change is -6.95%. Further, under setting [1], the AC50 was 461 nM [falling, single point].
Regarding `COC(=O)c1ccc(NC(=O)COc2coc(CN3CCc4ccccc43)cc2=O)cc1`, the cell number change is -13.8%. Moreover, the half-maximal activity concentration (AC50) under setting [1] is 146 nM [falling, full curve, poor fit].
Consider `O=C(NCCS(=O)(=O)N1CCN(c2ccc(F)cc2)CC1)C12CC3CC(CC(C3)C1)C2`, for which the cell number change was determined as 0.346%. In addition, the AC50 under setting [2] was 2910 nM [rising, single point].
For `CCCc1nnc(NC(=O)COC(=O)c2cc(C)nc3ccccc23)s1`, the cell number change is -7.03%. Further, the AC50 under setting [2] is 920 nM [rising, full curve, poor fit].
`O=C(NCC1CCCO1)c1cccc(F)c1` (configuration not stated): the cell number change was determined as 1.38%. The AC50 under setting [2] is 18400 nM [rising, single point].
Regarding `FC(F)(F)c1nnc(-c2ccccc2)nc1Sc1ccc(Cl)cc1`, the cell number change was -80%. Also, under setting [1], the AC50 is 8200 nM [falling, partial curve]. In addition, the AC50 under setting [2] is 29100 nM [falling, single point].
In the case of `CC(C)N1CCc2c(sc(NC(=O)Cc3ccccc3)c2C(N)=O)C1`, the cell number change was -9.8%.
With `CCN1C(=O)c2cccc3c(NC(=O)c4ccc(S(=O)(=O)N5CCOCC5)cc4)ccc1c23`, the cell number change was -11.4%. Besides, the AC50 under setting [2] was 1840 nM [rising, partial curve].
As for `Cc1cc(Oc2ccc(Cl)cc2)nc(-c2ccccc2O)n1`, the concentration at half-maximal activity (AC50) runs as follows: under setting [1], 116 nM [rising, full curve, poor fit]; under setting [2], 1030 nM [rising, partial curve].
Take `CCc1cc(C)cc(OCCNC(=O)c2cncc(Br)c2)c1`: the AC50 under setting [1] was 1160 nM [rising, full curve] and the AC50 under setting [2] was 2310 nM [rising, partial curve].

For the origin of these results see PubChem BioAssay AID2685 (National Center for Advancing Translational Sciences (NCATS), 2010).
